Data on two compounds can be found in patent publication US20100216179A1, “Method for detecting cancer and reagents for use therein” (priority 2009, published 2010).

For the series, the system named is normal human oral keratinocyte (NHOK) cell lines. The series can be described thus: Physisorption/desorption of adsorbent on fixed cell lines, infrared spectral imaging (oral cavity). The series is classed as cell-based. To be noted: desorption in xylene for 5 seconds. An excerpt:
The aforementioned method may also be adopted in determining oral cavity cancer, wherein there are 5 wt % paraffin and 5 wt % beeswax in xylene using as the first adsorbent and the second adsorbent, respectively.
The procedures for determining the oral cavity cancer according to this method is similar to the process steps 1-8 of embodiment 1 described above, except for the first adsorbent comprises 5 wt % Triacontane (C30H62); the second adsorbent comprises 7.5 wt % ethyl myristate (C16H32O2).
The procedure for determining the oral cavity cancer (III) is similar to the process steps 1-4 of embodiment 1 described above, except for the first adsorbent comprises a xylene solution containing 10 wt % 3,5,5-Trimethylhexyl 3,5,5-trimethylcaproat (C18H36O2).

For `CC(CCOC(=O)CC(C)CC(C)(C)C)CC(C)(C)C` (centres unmarked) [3,5,5-Trimethylhexyl 3,5,5-trimethylcaproat], where the note is “10 wt % adsorbent in xylene”, the “absorption of adsorbed adsorbent in the spectral range 3000-2800 cm^-1” value is reported as “stronger absorption”.

Turning to `CCCCCCCCCCCCCC(=O)OCC` [ethyl myristate], the “absorption of adsorbed adsorbent in the spectral range 3000-2800 cm^-1” value (7.5 wt % adsorbent) is “stronger absorption”.
